This is one part of the list.
target: T1, OsSMF1 (Oryza sativa, UniProt Q6ZLB0 1-436); test: protein-binding microarray (RPBM); PBS, 2% BSA, 51.3 ng/ul salmon testes DNA, 50 uM zinc acetate, 200 nM TF, 25 C, 1 h; high values mean tight binding; conditions: protein: recombinant; tags: N-terminal polyhistidine and DsRed monomer fusion (pET32a); chain copies: 2; label: CyDye5-dUTP incorporated in the synthesized complementary strand; 3' TTTTT single-stranded linker to array surface; dsDNA, one strand shown
T1 sequence: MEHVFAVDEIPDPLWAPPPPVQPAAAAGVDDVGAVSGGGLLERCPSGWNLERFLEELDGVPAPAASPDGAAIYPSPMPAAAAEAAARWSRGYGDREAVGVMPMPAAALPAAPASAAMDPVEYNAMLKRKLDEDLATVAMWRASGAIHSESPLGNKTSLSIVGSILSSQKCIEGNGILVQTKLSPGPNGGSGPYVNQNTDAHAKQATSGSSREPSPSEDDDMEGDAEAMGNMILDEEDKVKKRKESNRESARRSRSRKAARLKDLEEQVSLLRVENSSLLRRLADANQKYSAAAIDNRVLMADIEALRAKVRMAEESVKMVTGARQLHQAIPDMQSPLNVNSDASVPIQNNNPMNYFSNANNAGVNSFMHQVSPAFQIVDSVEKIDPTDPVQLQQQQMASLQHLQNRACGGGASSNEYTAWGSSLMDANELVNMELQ
Outline: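 Transcription factors, each fused N-terminally to a polyhistidine tag and DsRed, were expressed in E. coli BL21-CodonPlus and purified on Ni–NTA. A custom Agilent array was made double-stranded by primer extension with Cy5-dUTP and blocked with 2% BSA. It was incubated with 200 nM protein in PBS, 2% BSA, salmon testes DNA and 50 µM zinc acetate at 25 °C for 1 h, then washed. The binding signal is per-feature fluorescence intensity (arbitrary units) read on an Axon 4000B scanner.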

Sequence	binding signal
TCGGTTGATAGCTATCTTCTTAGTGCTTCTAAGAAATTGACGGAGTCACCTAGTGCAG	20900 fluorescence intensity (a.u.)
GTGAATGTGCACGTGTTATAAGCGCATACGTTTATACTGTCGGAGTCACCTAGTGCAG	3670 fluorescence intensity (a.u.)
GCAACCACCGCCGCCTCGCCGCAGCATCACCCGCAGCCGCCGGAGTCACCTAGTGCAG	3150 fluorescence intensity (a.u.)
AAACAGAGGTTTAAGACACAAACAGATAGCTAGGACTAGCCGGAGTCACCTAGTGCAG	30200 fluorescence intensity (a.u.)
CAATAATACTATGAAAAGACCAAAGTGACGTGACCAATGGCGGAGTCACCTAGTGCAG	4170 fluorescence intensity (a.u.)
AGTCTACTGCACAAATGATTAATATATACGCCACGTGAACCGGAGTCACCTAGTGCAG	3280 fluorescence intensity (a.u.)
CAGGTGAAGAAATTCTGACGATGATGTGGTGAGGTGAGGTCGGAGTCACCTAGTGCAG	6150 fluorescence intensity (a.u.)
GGTAGTAAGGTCTTACCGTGCAGCCACCGCCAGGTGGGCCCGGAGTCACCTAGTGCAG	3280 fluorescence intensity (a.u.)
GAGGCGTCTGTGGTGACTTCGTCAATCTCTCTAGGATTTGCGGAGTCACCTAGTGCAG	3770 fluorescence intensity (a.u.)
AAGAAGCCGCCTTGGTTTGGTAGTACAATTGTTCATCGGCCGGAGTCACCTAGTGCAG	3360 fluorescence intensity (a.u.)
GGTTTAGACGTGGCGGTGGTGGGTGGCGTACGTTTGGGTTCGGAGTCACCTAGTGCAG	5180 fluorescence intensity (a.u.)
GCTGACGCGCGGGAACACGTGTGAGCCAGCACGTGACCACCGGAGTCACCTAGTGCAG	5280 fluorescence intensity (a.u.)
TTTATTTGTTTTGCTGATGATTTGCTACGTCAGCGAAACCCGGAGTCACCTAGTGCAG	27200 fluorescence intensity (a.u.)
GAAGAAGATTGCCGGTTGACTTGTGGAGTCCACGTGGGACCGGAGTCACCTAGTGCAG	8320 fluorescence intensity (a.u.)
GACACTGCCACCTCACTCTCCACTCCACTATATATACCCTCGGAGTCACCTAGTGCAG	8250 fluorescence intensity (a.u.)
TCTTCTCCGCTACATCAGGCGCTTCAACATGCCTATGGGTCGGAGTCACCTAGTGCAG	22800 fluorescence intensity (a.u.)
AGTTGTTCAAATTTGACTAAGGTAATATTCTACCGGCTTGCGGAGTCACCTAGTGCAG	3400 fluorescence intensity (a.u.)
ACTGCTCGAGCCATGCGCGTACAACCAGACGTGTATAAACCGGAGTCACCTAGTGCAG	3500 fluorescence intensity (a.u.)
GCTGGTGGCAACGCTCACCGTGGTCCCCGAGGGGAGCAAGCGGAGTCACCTAGTGCAG	31200 fluorescence intensity (a.u.)
AGCGGCCGACAAGAGAGGAGTTGGGTGGCAGCGGGTGACGCGGAGTCACCTAGTGCAG	4290 fluorescence intensity (a.u.)
TCGCCGAGAAGCCACGGCTAGTCACGTGTGTTGGAGGAGCCGGAGTCACCTAGTGCAG	4700 fluorescence intensity (a.u.)

Looked up above.
GCAACCACCGCCGCCTCGCCGCAGCATCACCCGCAGCCGCCGGAGTCACCTAGTGCAG – binding signal: 3150 fluorescence intensity (a.u.)
GTGAATGTGCACGTGTTATAAGCGCATACGTTTATACTGTCGGAGTCACCTAGTGCAG – binding signal: 3670 fluorescence intensity (a.u.)

Continued.

Sequence	binding signal
CCAAACTCTATTTGTATCATAAGCCACGCATAAAATTTGCCGGAGTCACCTAGTGCAG	3140 fluorescence intensity (a.u.)
GAGGAAGAAGGATAGGGTGAGGATGACACGTGGGCCCCACCGGAGTCACCTAGTGCAG	14300 fluorescence intensity (a.u.)
GACTTGCCTTGCAACTGGAAAATGTCAGCACCTAAATCACCGGAGTCACCTAGTGCAG	3480 fluorescence intensity (a.u.)
ATGATATCTTGATCATCTGGACGTCATCTTCTCCCAAGTCCGGAGTCACCTAGTGCAG	4770 fluorescence intensity (a.u.)
ACAAGCACTGATTTTGGATGAGTTGTTGCCTGCAAGGCATCGGAGTCACCTAGTGCAG	3600 fluorescence intensity (a.u.)
CGAATGCGCGCGTTTCCGTCGTGTCAACCCGTCACGTTGCCGGAGTCACCTAGTGCAG	5110 fluorescence intensity (a.u.)
TTTGTCTTCTTACCTGCCAAGTCCTTGTCACTGTTGTAGCCGGAGTCACCTAGTGCAG	5770 fluorescence intensity (a.u.)
GGTGAGCAAGAAGTCCATCATGTGAACTTGAGCGTTAGCGCGGAGTCACCTAGTGCAG	32500 fluorescence intensity (a.u.)
CAGAGGCAATATATGCATGCCGCTAGTTTTGTCTACATCACGGAGTCACCTAGTGCAG	3840 fluorescence intensity (a.u.)
AGCCACGCGTGAGCAAAGCGCGAGCGTGCCAGAGTCCACGCGGAGTCACCTAGTGCAG	3520 fluorescence intensity (a.u.)
GCTCGATCGCTAGTCGTCGCCGTGTGTGTAATGCCATGGTCGGAGTCACCTAGTGCAG	3220 fluorescence intensity (a.u.)
TGGTCAGGTGGATCACGACGTGGACGTGCACAAACTCGACCGGAGTCACCTAGTGCAG	5420 fluorescence intensity (a.u.)
AACTATGTGAAAAGCATCAGCAGGCAGCAGCTCAAACACTCGGAGTCACCTAGTGCAG	3260 fluorescence intensity (a.u.)
AATCGATTTCTTCAAGAAGTGTTGTCATCAAATGGTGTTCCGGAGTCACCTAGTGCAG	3520 fluorescence intensity (a.u.)
CGGGGCCACCGTCATAGAGCGCGCAAGAGGCGTGACGTGTCGGAGTCACCTAGTGCAG	20100 fluorescence intensity (a.u.)
ATAATTATATTTACCACCATTGCCGTCAGGGCTCCGATGCCGGAGTCACCTAGTGCAG	3820 fluorescence intensity (a.u.)
GTGCACCGCGTGCACCGGTGCATGACGCCCTTGTGGCTCGCGGAGTCACCTAGTGCAG	3760 fluorescence intensity (a.u.)
TCTTAGTACCACTGACACGTGGGTCACGAATCATCATTGTCGGAGTCACCTAGTGCAG	13100 fluorescence intensity (a.u.)
AACCCAACCCAACCCAACCCTTCTCTCCACGCAGGCGCAGCGGAGTCACCTAGTGCAG	3940 fluorescence intensity (a.u.)
TGATATTCGGCGAGCACATGTGACATGTGCATGTTCTTATCGGAGTCACCTAGTGCAG	4650 fluorescence intensity (a.u.)
GTTCATAGTCCAAAATACTGTCAAGTAAATTCAAGTGATGCGGAGTCACCTAGTGCAG	3160 fluorescence intensity (a.u.)

Reference: PMC7819943, “Rice protein-binding microarrays: a tool to detect cis-acting elements near promoter regions in rice”
